Test results published in patent US6015790A, “Methods and compositions for treating rheumatoid arthritis” (BASF Aktiengesellschaft, priority 1997, dated 2000).
Not every detail of the peptide structures is certain; ends, links or a residue may be inferred. Square brackets hold non-standard residues; d marks the D form. Peptide text beside a SMILES is read from it. * marks the point of attachment. NMe2Val = CC(C)[C@@H](C(=O)*)N(C)C; NMeV = CN[C@H](C(=O)O)C(C)C; NHtBu = CC(C)(C)N*

Experiments:
[1] = system: collagen induced arthritis in DBA-1 mice; assay: Collagen induced arthritis, prophylactic model (mean arthritic score); type: in vivo; conditions: 50 mg/kg/day orally by gavage, day 26 to day 35 post immunization
[2] = system: collagen induced arthritis in DBA-1 mice; assay: Collagen induced arthritis, therapeutic model (mean arthritic score, histopathology); type: in vivo
[3] = 50 mg/kg/day orally, 21 days from day 48, necropsy day 71, vs vehicle

## CC(C)[C@H](NC(=O)[C@H](C(C)C)N(C)C)C(=O)N(C)[C@H](C(=O)N1CCC[C@H]1C(=O)N1CCC[C@H]1C(=O)NC(C)(C)C)C(C)C [compound ii, Me2 Val-Val-MeVal-Pro-Pro-NHC(CH3)3] (NMe2Val-V[NMeV]PP-NHtBu)
[1]
  signs of rheumatoid arthritis after end of treatment (mean arthritic score): none of the animals treated with compound ii had signs of rheumatoid arthritis up to 6 days after the end of treatment
[2]; 50 mg/kg/day orally by gavage, 21 days from day 48 post immunization, P Value less than 0.01-0.05, Mann-Whitney Test
  mean arthritic score as compared to control: significant decrease in mean arthritic score
[2]; [3]
  cartilage involvement (cartilage damage, histopathology, scale 0-3): significantly suppressed
  synovitis (synovial inflammation, histopathology, scale 0-3): significantly suppressed
